Assay results as given in PubChem BioAssay AID504861 (Broad Institute, 2011).
Out of some 1,200 compounds screened, about 290 (24%) were called active. Another 3% or so got no clear call; they are omitted.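 The calls were made as follows: active = compounds lowering cell viability signal with fitted half-maximal concentration at most ten times their highest tested concentration; inconclusive = flat fit with 30 to 70% signal loss, or poor fit; inactive = the rest.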 The entries are a selection whose mix differs from that of the whole data set. Potency and affinity values are given separately.

Experiment: cytotoxicity in HEK293T cells – cell-based, CellTiter-Glo luminescence, cherry-picks, cytotoxicity control for LMP1 NF-kB inhibitor project, dose response (AID 504861)
Conditions: HEK293T viability, CellTiter-Glo ATP luminescence, 48 h; at 26 µM (top of the series)
With COc1ccc(CNC(=O)N2[C@H]3CC[C@@H]2C=C(c2ccc(F)cc2OCc2ccccc2)C3)cc1OC the activity change, negative = cytotoxicity was inactive: 8.66%.
For C[C@]12CC[C@@H]3c4ccc(OS(=O)(=O)O)cc4CC[C@H]3[C@@H]1CCC2=O, the activity change, negative = cytotoxicity was inactive: 9.47%.
With COc1cc2c(CCNC(C)=O)c[nH]c2cc1Cl the activity change, negative = cytotoxicity was inactive: 11.7%.
With CCCC(=O)C1=C(O)C(C(=O)OC)C(C)(C)CC1=Nc1ccncc1 (centres undefined) the activity change, negative = cytotoxicity was inactive: -1.96%.
In the case of CC(C(=O)N=Nc1c(O)[nH]c2ccccc12)n1cnc2ccccc2c1=O (centres undefined), the activity change, negative = cytotoxicity was inactive: 1.48%.
For OCCCNc1nccc(-c2cc(Nc3cccc(Cl)c3)ncn2)n1, the activity change, negative = cytotoxicity was inactive: -9.76%.
For COc1cc(OC)cc(-c2c(C#Cc3ccsc3)c3cc(-c4cc(OC)c(OC)c(OC)c4)ccc3n2C)c1, the activity change, negative = cytotoxicity was inactive: 9.6%.
For COc1ccc(Nc2oc(COc3ccc(Cl)cc3)nc2C#N)cc1, the activity change, negative = cytotoxicity was inactive: 3%.
For O=c1c(O)c(-c2ccc(O)c(O)c2)oc2cc(O)cc(O)c12, the activity change, negative = cytotoxicity was inactive: -6.16%.
With Cc1ccnc(N/C=C(/NC(=O)c2ccccc2)C(=O)N/N=C\c2ccc(F)cc2)n1 the activity change, negative = cytotoxicity was inactive: 4.61%.
In the case of COc1ccc(S(=O)(=O)N2CCC(C(=O)NC3CC3)CC2)cc1OC, the activity change, negative = cytotoxicity was inactive: 3.64%.
For CN(CCNC(=O)C1CCN(S(=O)(=O)N2CCOCC2)CC1)CCc1ccccc1, the activity change, negative = cytotoxicity was inactive: 0.046%.
For COc1ccc(C2CC(C(F)(F)F)n3ncc(C(=O)NCc4cccnc4)c3N2)cc1OC (centres undefined), the activity change, negative = cytotoxicity was inactive: 31.2%.
With CCSc1nnc(NC(=O)CSc2nnc(-c3c[nH]c4ccccc34)n2CC)s1 the activity change, negative = cytotoxicity was inactive: -8.74%.
With O=S(=O)(N/N=C/c1ccccc1F)c1ccccc1 the activity change, negative = cytotoxicity was inactive: 10.4%.
For CC(C)(C)c1ccc(Cn2c(=O)cnc3ccccc32)cc1, the activity change, negative = cytotoxicity was inactive: 0.777%.
In the case of CN1OC[C@@H]2CN[C@H](c3ccc(-c4cc5ccccc5o4)cc3)C[C@@H]21, the activity change, negative = cytotoxicity was inactive: 0.567%.
For O=C(C1CCCCC1)N1CCN(c2ncccn2)CC1, the activity change, negative = cytotoxicity was inactive: 8.2%.
With CC(C)C(=O)Nc1ccc(C(=O)N/N=C/c2cc(Br)cc(Br)c2O)cc1 the activity change, negative = cytotoxicity was inactive: 4.48%.
In the case of CCCCCCc1cc2cc(-c3nnc(-c4ccccc4)o3)c(=O)oc2cc1O, the activity change, negative = cytotoxicity was inactive: 5.44%.
With COc1ccccc1N1CCN(C(=O)CCC(=O)N2CCN(c3ccc(F)cc3)CC2)CC1 the activity change, negative = cytotoxicity was inactive: -2.9%.
For O=c1c([N+](=O)[O-])cn(Cc2ccccc2)c(=O)n1Cc1ccccc1, the activity change, negative = cytotoxicity was inactive: 2.12%.
In the case of COCCn1c(SCC(=O)NCc2ccco2)nnc1-c1c[nH]c2ccccc12, the activity change, negative = cytotoxicity was inactive: 2.05%.
For C[C@@]12C(=O)N(Cc3ccccc3)CC(=O)N1[C@H](/C=C/c1ccccc1)[C@@H]1C(=O)N(c3ccccc3)C(=O)[C@@H]12, the activity change, negative = cytotoxicity was inactive: 5.94%.
With Cc1cc(C)nc(SCC(=O)OCN2C(=O)c3ccccc3C2=O)n1 the activity change, negative = cytotoxicity was inactive: 3.05%.
With COc1ccc(/C=N/NC(=O)COc2ccccc2-c2ccccc2)cc1 the activity change, negative = cytotoxicity was inactive: -5.26%.
For CN(C)CC(C)(C)CNS(=O)(=O)c1ccc(OC(F)(F)F)cc1, the activity change, negative = cytotoxicity was inactive: 12.1%.
In the case of CC(C)Cc1ccc([C@H](C)C(=O)O)cc1, the activity change, negative = cytotoxicity was inactive: -4.49%.
With COC(=O)c1[nH]c2ccc(C)cc2c1NC(=O)NC1CCCCC1 the activity change, negative = cytotoxicity was inactive: -0.499%.
For N#CC1=C(N)N2C(=C(C#N)C1c1cccc(Br)c1)Nc1ccccc12 (centres undefined), the activity change, negative = cytotoxicity was inactive: 9.3%.
In the case of Cc1cc(NC(=O)c2ccc3c(c2)OCCO3)no1, the activity change, negative = cytotoxicity was inactive: 7.18%.
With O=C(/C=C/Nc1ccc(F)cc1Br)c1ccccc1 the activity change, negative = cytotoxicity was inactive: -5.49%.
For COc1ccc(C(=O)Nc2cc(C)c(NC(=O)c3ccccc3OC)cn2)cc1, the activity change, negative = cytotoxicity was inactive: -4.03%.
In the case of C[C@H](NC(=O)N1CCn2c1nc1ccccc12)C(=O)NCC1CCCO1 (some centres undefined), the activity change, negative = cytotoxicity was inactive: 22.1%.
With O=C(C1CC1)N1N=C(c2ccc(Br)cc2)CC1(O)C(F)(F)F (centres undefined) the activity change, negative = cytotoxicity was inactive: -1.28%.
In the case of COc1ccc(Nc2oc(COc3ccccc3OC)nc2C#N)cc1, the activity change, negative = cytotoxicity was inactive: -1.64%.
With O=C(Nc1ccc(F)c(F)c1)C1CCCCC1 the activity change, negative = cytotoxicity was inactive: 2.12%.
In the case of CN1C(=O)N(C)c2ccc(C=O)c3cccc1c23, the activity change, negative = cytotoxicity was inactive: 6.7%.
With COc1cccc(C2=CC(=O)C[C@H](c3ccc4c(c3)OCO4)C2)c1 the activity change, negative = cytotoxicity was inactive: -0.577%.
With Cc1ccc(C)c(S(=O)(=O)N2CCN(CC(=O)N3CCc4ccccc4C3)CC2)c1 the activity change, negative = cytotoxicity was inactive: 7.78%.
For CCn1c(SC(C)C)nnc1-c1c[nH]c2ccccc12, the activity change, negative = cytotoxicity was inactive: 4.25%.
With Cc1cc(=S)[nH]c2ccccc12 the activity change, negative = cytotoxicity was inactive: 5.57%.
In the case of O=c1cc(C2CCCCC2)[nH]c(=O)[nH]1, the activity change, negative = cytotoxicity was inactive: 11.6%.
In the case of O=c1cc(Cl)nc2ccccn12, the activity change, negative = cytotoxicity was inactive: 5.86%.
With CCN(C(=O)c1cccc(NC(=O)c2ccccc2)c1)C1CCCCC1 the activity change, negative = cytotoxicity was inactive: 1.08%.
With COc1cc2nc(N3CCN(C(=O)C4CCCO4)CC3)nc(N)c2cc1OC (centres undefined) the activity change, negative = cytotoxicity was inactive: 1.52%.
In the case of Cc1ccc(CNC(=O)C(=O)NCC2OCCN2S(=O)(=O)c2ccc(Cl)cc2)cc1 (centres undefined), the activity change, negative = cytotoxicity was inactive: 12.9%.
With O=C(Nc1cc(Cl)ccc1Cl)C1Cc2ccccc2O/C1=N\O (centres undefined) the activity change, negative = cytotoxicity was inactive: 8.17%.
With CCCn1c(C)cc(C(=O)CN2C(=O)c3ccccc3S2(=O)=O)c1C the activity change, negative = cytotoxicity was inactive: 9.62%.
With Cc1ccc(-n2c(=O)c3c(c4cc(C)ccc4n3C)n(CC(=O)NCC3CCCO3)c2=O)cc1 (centres undefined) the activity change, negative = cytotoxicity was inactive: 4.29%.
For CC1=C(C(=O)OCc2ccc3c(c2)OCO3)C(c2ccc(Cl)cc2)NC(=O)N1 (centres undefined), the activity change, negative = cytotoxicity was inactive: -5.93%.
With Cc1cccn2c(=O)c(C=NCCO)c(NCc3ccco3)nc12 the activity change, negative = cytotoxicity was inactive: 4.6%.
With Cc1ccc(-n2cc(C(=O)c3ccccc3O)cn2)cc1 the activity change, negative = cytotoxicity was inactive: 1.39%.
With O=C1CCC(C(=O)N2CCCCCC2)CN1CCc1ccc(Cl)cc1 (centres undefined) the activity change, negative = cytotoxicity was inactive: 5.72%.
For CC1(C)CC(=O)C(CC2=C(O)CC(C)(C)CC2=O)=C(O)C1, the activity change, negative = cytotoxicity was inactive: 2.82%.
In the case of CCC(C)(C)NC(=O)C(c1ccc(F)cc1)N(CCOC)C(=O)CCC(=O)Nc1nccs1 (centres undefined), the activity change, negative = cytotoxicity was inactive: -8.1%.
With Cc1sc2nc(SCC(=O)OC(C)C)n(C)c(=O)c2c1C the activity change, negative = cytotoxicity was inactive: 5.98%.
With COCCn1c(SCc2ccc(C(=O)OC)o2)nnc1-c1c[nH]c2ccccc12 the activity change, negative = cytotoxicity was inactive: 5.54%.
With COCCNC(=O)C1CCC(CNS(=O)(=O)c2ccccc2)CC1 (centres undefined) the activity change, negative = cytotoxicity was inactive: 6.32%.
